Test results from the supplement of paper PMC7661543.
Differences between knockout arms are mostly noise.

Tested on: HCC-38
Test: relative cell number vs DMSO control (72 h) (% of DMSO); higher = less growth inhibition (more cells)
Method: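 QMAP-Seq: a pool of 5 breast cancer cell lines (ZR-75-1, SKBR3, HCC-38, MDA-MB-231, BT-20), each carrying 12 doxycycline-inducible Cas9 sgRNA perturbations (11 knockouts plus non-targeting sgNT), was treated with compounds for 72 h at four 10-fold doses (10 nM-10 uM or 1 nM-1 uM range). Barcodes were amplified and sequenced, and cell number was interpolated from 293T spike-in standard curves. The result is expressed as % of the median of DMSO wells. Two biological replicates.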

N.N.[Cl][Pt][Cl] [Cisplatin]
Details | relative cell number
sgRNA knockout: sgATF3, 10 nM | 111
sgRNA knockout: sgATF3, 100 nM | 76.5
sgRNA knockout: sgATF3, 1000 nM | 104
sgRNA knockout: sgATF3, 10000 nM | 96.1
sgRNA knockout: sgATF4, 10 nM | 112
sgRNA knockout: sgATF4, 100 nM | 75.7
sgRNA knockout: sgATF4, 1000 nM | 105
sgRNA knockout: sgATF4, 10000 nM | 86
sgRNA knockout: sgATF6, 10 nM | 110
sgRNA knockout: sgATF6, 100 nM | 88.5
sgRNA knockout: sgATF6, 1000 nM | 110
sgRNA knockout: sgATF6, 10000 nM | 93.9
sgRNA knockout: sgATG7, 10 nM | 112
sgRNA knockout: sgATG7, 100 nM | 79.3
sgRNA knockout: sgATG7, 1000 nM | 104
sgRNA knockout: sgATG7, 10000 nM | 89.75
sgRNA knockout: sgERN1, 10 nM | 115
sgRNA knockout: sgERN1, 100 nM | 81.7
sgRNA knockout: sgERN1, 1000 nM | 108
sgRNA knockout: sgERN1, 10000 nM | 93.83
sgRNA knockout: sgHSF1, 10 nM | 93.9
sgRNA knockout: sgHSF1, 100 nM | 84.9
sgRNA knockout: sgHSF1, 1000 nM | 108
sgRNA knockout: sgHSF1, 10000 nM | 105
sgRNA knockout: sgHSF2, 10 nM | 110
sgRNA knockout: sgHSF2, 100 nM | 81.5
sgRNA knockout: sgHSF2, 1000 nM | 94.71
sgRNA knockout: sgHSF2, 10000 nM | 95
sgRNA knockout: sgKEAP1, 10 nM | 95.3
sgRNA knockout: sgKEAP1, 100 nM | 85.9
sgRNA knockout: sgKEAP1, 1000 nM | 97.6
sgRNA knockout: sgKEAP1, 10000 nM | 107
sgRNA knockout: sgNFE2L2, 10 nM | 113
sgRNA knockout: sgNFE2L2, 100 nM | 75.3
sgRNA knockout: sgNFE2L2, 1000 nM | 115
sgRNA knockout: sgNFE2L2, 10000 nM | 77
sgRNA knockout: sgSLC35F2, 10 nM | 114
sgRNA knockout: sgSLC35F2, 100 nM | 80.6
sgRNA knockout: sgSLC35F2, 1000 nM | 105
sgRNA knockout: sgSLC35F2, 10000 nM | 88.6
sgRNA knockout: sgXBP1, 10 nM | 110
sgRNA knockout: sgXBP1, 100 nM | 79.1
sgRNA knockout: sgXBP1, 1000 nM | 105.8
sgRNA knockout: sgXBP1, 10000 nM | 88.9

C[C@@H](Oc1cc(-c2cnn(C3CCNCC3)c2)cnc1N)c1c(Cl)ccc(F)c1Cl [Crizotinib]
Details | relative cell number
sgRNA knockout: sgATF3, 10 nM | 93.2
sgRNA knockout: sgATF3, 100 nM | 83
sgRNA knockout: sgATF3, 1000 nM | 75.51
sgRNA knockout: sgATF3, 10000 nM | 21.7
sgRNA knockout: sgATF4, 10 nM | 97.5
sgRNA knockout: sgATF4, 100 nM | 74.8
sgRNA knockout: sgATF4, 1000 nM | 81.6
sgRNA knockout: sgATF4, 10000 nM | 21.8
sgRNA knockout: sgATF6, 10 nM | 100
sgRNA knockout: sgATF6, 100 nM | 86.3
sgRNA knockout: sgATF6, 1000 nM | 74
sgRNA knockout: sgATF6, 10000 nM | 24.6
sgRNA knockout: sgATG7, 10 nM | 93.1
sgRNA knockout: sgATG7, 100 nM | 83.1
sgRNA knockout: sgATG7, 1000 nM | 81.4
sgRNA knockout: sgATG7, 10000 nM | 23.2
sgRNA knockout: sgERN1, 10 nM | 87.2
sgRNA knockout: sgERN1, 100 nM | 85.8
sgRNA knockout: sgERN1, 1000 nM | 70.5
sgRNA knockout: sgERN1, 10000 nM | 19.8
sgRNA knockout: sgHSF1, 10 nM | 88.8
sgRNA knockout: sgHSF1, 100 nM | 89.6
sgRNA knockout: sgHSF1, 1000 nM | 66
sgRNA knockout: sgHSF1, 10000 nM | 22.6
sgRNA knockout: sgHSF2, 10 nM | 98.6
sgRNA knockout: sgHSF2, 100 nM | 88.79
sgRNA knockout: sgHSF2, 1000 nM | 84.3
sgRNA knockout: sgHSF2, 10000 nM | 27.1
sgRNA knockout: sgKEAP1, 10 nM | 81.7
sgRNA knockout: sgKEAP1, 100 nM | 109.1
sgRNA knockout: sgKEAP1, 1000 nM | 62.3
sgRNA knockout: sgKEAP1, 10000 nM | 29.2
sgRNA knockout: sgNFE2L2, 10 nM | 96.3
sgRNA knockout: sgNFE2L2, 100 nM | 74.2
sgRNA knockout: sgNFE2L2, 1000 nM | 86.8
sgRNA knockout: sgNFE2L2, 10000 nM | 22.6
sgRNA knockout: sgSLC35F2, 10 nM | 94.4
sgRNA knockout: sgSLC35F2, 100 nM | 89.9
sgRNA knockout: sgSLC35F2, 1000 nM | 76.1
sgRNA knockout: sgSLC35F2, 10000 nM | 22.4
sgRNA knockout: sgXBP1, 10 nM | 97.8
sgRNA knockout: sgXBP1, 100 nM | 83.6
sgRNA knockout: sgXBP1, 1000 nM | 84.4
sgRNA knockout: sgXBP1, 10000 nM | 21.4

CN(C)/N=N/c1[nH]cnc1C(N)=O [Dacarbazine]
Details | relative cell number
sgRNA knockout: sgATF3, 10 nM | 93.7
sgRNA knockout: sgATF3, 100 nM | 83.6
sgRNA knockout: sgATF3, 1000 nM | 89.614
sgRNA knockout: sgATF3, 10000 nM | 102
sgRNA knockout: sgATF4, 10 nM | 104
sgRNA knockout: sgATF4, 100 nM | 78.7
sgRNA knockout: sgATF4, 1000 nM | 94.5
sgRNA knockout: sgATF4, 10000 nM | 101
sgRNA knockout: sgATF6, 10 nM | 84.6
sgRNA knockout: sgATF6, 100 nM | 85.5
sgRNA knockout: sgATF6, 1000 nM | 98.4
sgRNA knockout: sgATF6, 10000 nM | 99.9
sgRNA knockout: sgATG7, 10 nM | 95.2
sgRNA knockout: sgATG7, 100 nM | 86.6
sgRNA knockout: sgATG7, 1000 nM | 101.5
sgRNA knockout: sgATG7, 10000 nM | 94.6
sgRNA knockout: sgERN1, 10 nM | 94.7
sgRNA knockout: sgERN1, 100 nM | 94
sgRNA knockout: sgERN1, 1000 nM | 93.7
sgRNA knockout: sgERN1, 10000 nM | 99.1
sgRNA knockout: sgHSF1, 10 nM | 92.5
sgRNA knockout: sgHSF1, 100 nM | 98.9
sgRNA knockout: sgHSF1, 1000 nM | 89.7
sgRNA knockout: sgHSF1, 10000 nM | 89.3
sgRNA knockout: sgHSF2, 10 nM | 103
sgRNA knockout: sgHSF2, 100 nM | 92.9
sgRNA knockout: sgHSF2, 1000 nM | 96.1
sgRNA knockout: sgHSF2, 10000 nM | 83.5
sgRNA knockout: sgKEAP1, 10 nM | 83
sgRNA knockout: sgKEAP1, 100 nM | 96.6
sgRNA knockout: sgKEAP1, 1000 nM | 106.9
sgRNA knockout: sgKEAP1, 10000 nM | 111
sgRNA knockout: sgNFE2L2, 10 nM | 109
sgRNA knockout: sgNFE2L2, 100 nM | 81.2
sgRNA knockout: sgNFE2L2, 1000 nM | 92.2
sgRNA knockout: sgNFE2L2, 10000 nM | 98
sgRNA knockout: sgSLC35F2, 10 nM | 86.2
sgRNA knockout: sgSLC35F2, 100 nM | 87.5
sgRNA knockout: sgSLC35F2, 1000 nM | 94.75
sgRNA knockout: sgSLC35F2, 10000 nM | 100
sgRNA knockout: sgXBP1, 10 nM | 99.75
sgRNA knockout: sgXBP1, 100 nM | 89.4
sgRNA knockout: sgXBP1, 1000 nM | 89.4
sgRNA knockout: sgXBP1, 10000 nM | 98.6
